Measured values published in the supplement of paper PMC3334620.
Over roughly 33,000 sequences, “E-score (-0.5 to 0.5)” has its median near -0.0059; the highest 2% begin near 0.26. The list shows a part of the results.

Target: T1, Cin5 (UniProt P40917)
T1 sequence: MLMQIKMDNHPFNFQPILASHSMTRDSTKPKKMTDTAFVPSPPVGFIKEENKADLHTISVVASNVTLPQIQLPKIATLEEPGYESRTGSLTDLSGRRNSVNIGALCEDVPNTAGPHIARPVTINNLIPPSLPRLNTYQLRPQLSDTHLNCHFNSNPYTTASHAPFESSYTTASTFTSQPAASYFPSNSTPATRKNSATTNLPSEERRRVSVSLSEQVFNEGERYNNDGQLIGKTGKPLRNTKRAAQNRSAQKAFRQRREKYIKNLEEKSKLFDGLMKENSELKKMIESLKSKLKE
Test: PBM E-score (8-mer binding enrichment) (E-score (-0.5 to 0.5)); higher = stronger / more preferred TF binding
Conditions: protein concentration: 100 nM; construct: GST-full length
Method in brief: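 The E-score, a modified Wilcoxon-Mann-Whitney statistic, was computed by the Universal PBM Analysis Suite for every ungapped eight-base word pooled with its reverse complement. Scans behind it were normalised with masliner after bound GST-tagged yeast transcription factors were detected with fluorescent anti-GST. The proteins, at about 100-200 nM, had been applied to universal all-10-mer Agilent arrays made double-stranded by primer extension.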

Sequence	PBM E-score
AAGCTAGA	-0.0103
AAAATGTG	0.208
CCGTGATA	-0.124
GCGATGAC	0.0938
GAGTGGAC	-0.0829
AGGTTGGG	-0.02
AATCCACA	0.152
CCGTCAAC	-0.0405
CACCCCAG	0.102
AATATCCA	0.096
AGTATGAC	0.173
TCACCCCA	0.188
GTCGTGTA	0.0489
AACCCACG	-0.122
ATATAGAT	0.207
AAGTAAGA	0.0967
AAGGCACG	-0.0138
AAATGTCC	-0.169
AATGGCGT	0.061
AAATTCCC	-0.0118
GCGCTACA	-0.0801
GGGGGATA	-0.322
ACACCCAT	0.149
CATCTTTC	0.00885
AACTTACA	0.162

Sequence	PBM E-score
CATAAATG	-0.125
GCTAACGA	0.0476
ACTCATCG	-0.00039
GACAGGAC	-0.0829
CGTGTCCC	-0.143
GGCCAGGA	-0.0739
AGCCAGAC	-0.026
AGGTAGTC	-0.174
GGCCTAGA	-0.0235
ACTCTGAC	0.0108
CGACATTA	0.115
GTAGCCTA	-0.335
CGTAAAAC	-0.123
GTAGCGAC	-0.18
GCATTGAA	0.117
GTGAAACA	0.0592
CCCCCAGG	-0.413
ATGATTTC	0.238
ATCCTGGA	0.0802
GGTCCATA	-0.0905
CGCGTGAA	0.117
GAACTGGA	0.158
TATGAAAA	0.114
ATGGTCAG	0.248
AGGATTAA	0.0964

Sequence	PBM E-score
CAAACTCC	0.115
GATAGGCA	-0.00464
AGAGACAA	-0.0879
TGAGCTAA	0.0847
AACATGGT	0.0935
GGAGCTAA	-0.128
AGGTAAGG	0.0286
CGAGCCGC	0.0468
ATCCTAAC	0.104
ACAAATGA	0.0902
AGACTACT	-0.0196
GGACGCCA	-0.242
GCCGACCA	-0.153
CATAGGGG	0.0312
ACTTACAC	-0.04
GACCATTA	0.0621
AGCGCCTG	-0.172
AATGAGTC	0.0897
CAATGTCG	0.0452
CTTAGCGA	0.0248
GCGTTGCC	-0.143
ATGCTTAG	0.313
AAGAAGCT	-0.0487
TACACAGA	0.0644
CCTTACAC	-0.149

Sequence	PBM E-score
TACCGAAA	0.0425
AACAAGCG	0.206
ATTGTTCC	0.0946
AGTCGGCA	-0.0519
GCGCAGCC	-0.232
AGGCGGAG	0.0837
AGAGCTGA	-0.0469
AGAGATTG	0.0212
AAGCTCGG	0.0328
ACCGCTTA	0.0972
CAATATTA	0.275
CTCCTAAA	-0.234
TAGGAAAA	-0.00948
ATGTAATC	0.383
GCGGCAAA	-0.00918
AATCCCCC	-0.301
CGAATGTA	0.133
AATCGCTG	-0.0284
CAGCAAGA	0.0833
CTGCAAAC	-0.149
CGCCATTA	0.129
CCCTGTCC	-0.33
AATGAAGC	0.0233
GACTTGAC	-0.208
CCGTCTTA	-0.197

Sequence	PBM E-score
GGTGGTAC	-0.21
TATTTCGA	0.242
AACCAACG	-0.0463
TCATCAGA	0.0449
ACCCATGC	0.0388
AGACACCG	-0.0873
CTCTACCC	0.0497
CTTTAAGC	0.0443
CTCGATCC	-0.0163
ACGGGGCC	-0.0302
AATACTAG	0.204
CGACCAAC	-0.0255
GGGAACAC	-0.0243
AAGATCTC	-0.0558
GATGGAGA	0.00158
CCTCCCTA	-0.245
CTCAGCTC	-0.139
ATGACAGC	0.0951
GAGGAAGC	-0.223
ACTCCCGG	-0.0856
CAGATGTC	-0.0243
AAGTCACT	-0.0106
CACACGTC	-0.23
AACGGAGC	-0.187
GGCTGCCA	-0.192

Sequence	PBM E-score
CCCCGTAC	-0.241
GGCAACAA	0.124
AGAGATTC	0.0385
AATTCCGA	0.151
AGATCTGG	-0.193
GAGATCCA	-0.00918
GACAATGC	-0.00472
CGCGATCC	0.00515
ACACGAAA	0.193
GTCAATTA	0.024
ACGGTGCG	-0.0608
TAGTTATA	0.23
ACCGCCGA	-0.133
CTTACAAA	0.192
CATCTTCG	0.109
GTCACTGA	-0.0276
ATTTCACA	0.214
ATTCTGAG	-0.0347
TATTGTCA	0.191
ACATGCCT	-0.201
AAACAAGA	0.0674
AGGACTTC	-0.241
GTGCGAAA	-0.00601
GTGGAAAA	0.0919
AGACCACG	-0.214

Some of the entries so far, in CSV form:
Sequence,PBM E-score
AGAGATTC,0.0385
AGATCTGG,-0.193
ACCGCCGA,-0.133
CTTACAAA,0.192
TATTGTCA,0.191
AAACAAGA,0.0674

(continued)

Sequence	PBM E-score
AGTAGCAA	0.136
CAAAACCC	0.0411
AGACCCAA	0.0315
CGCGCCAC	0.0114
CACTCATC	0.031
CCAGCGTC	-0.249
AGCAGCGC	-0.0185
GGTGAGTA	-0.00832
CATCGACA	-0.103
ATCACACA	0.16
AAGTGTGG	0.00252
GGAGCGGA	-0.124
AGTCCTCG	-0.179
AGGCCTGC	-0.232
CGGGAACG	-0.00694
ACCCCGAG	-0.128
AACGCCTA	0.0388
ACACACTC	0.218
CATGAATA	-0.0377
GACGCATA	0.111
ACTGACGG	-0.123
ACTCCCTC	-0.224
ACCATTGG	0.0343
CTAACTAA	0.15
ATGCTCGC	0.0419

Sequence	PBM E-score
AGCCTGAA	-0.037
AACTTGGC	0.103
ACGTCTAC	-0.114
CCAGAGCG	-0.146
AAATCCCC	-0.131
CAGGCAAA	-0.00195
GCGCTAAC	-0.0995
ACCCCACG	-0.0358
ATCGGAAC	0.267
CCTGGACC	-0.145
GTGGGCAA	-0.0179
AAGTCGCC	-0.242
CCACCTAA	0.0475
AGACCGCT	-0.167
ACGGGTGG	0.0946
CATAACAA	0.252
CTCAGAAG	-0.157
ATGCTAAC	0.0717
ACTCCGAC	-0.104
CGCGCACA	0.123
AAAATGTC	0.0971
AGCTCTGG	-0.213
AAAATTGC	0.0665
CATCGAGA	0.13
GTGGGAGA	-0.227

Laid out differently: entries from further up.
CGCGCACA
  PBM E-score = 0.123
AAAATGTC
  PBM E-score = 0.0971
AGCTCTGG
  PBM E-score = -0.213
AAAATTGC
  PBM E-score = 0.0665

(next part)

Sequence	PBM E-score
CGACCGAG	-0.0976
CAACTTGC	-0.0974
CAATGGTG	-0.161
ATGGTTCC	0.109
CCGTCGGC	-0.262
GTTTCAGA	-0.0438
GACGTACA	0.0813
ACCCAAGA	-0.0441
AGAGAGTC	-0.156
AGCGAGCC	-0.0601
AACCGCCA	-0.136
CTGCGGCA	-0.222
CGTTACCC	-0.0645
CCAGTCAC	-0.172
CAACCCGG	-0.222
ATAGTAAA	0.198
TGATCAAA	0.0816
GAAATAGC	0.0697
ATACATTC	0.153
CTAGGCAA	-0.126
ACAAGAGA	0.0645
GACTTGCC	-0.255
AATGACAG	0.0567
CTCTGTCC	-0.0803
CATCACGA	-0.0937

Sequence	PBM E-score
AATGACTC	-0.17
CAGTGGGC	-0.0998
CAATGGCC	-0.225
CCCCTGCA	-0.235
GACATCAC	-0.0253
GTAACTAA	0.111
CGGGTGCA	-0.0994
CAAACGCA	-0.103
CATTGGAG	0.0105
CGGTGCTA	-0.0572
CATCTAAC	-0.0982
CATATTGA	0.0883
AGCCCGGA	-0.207
ACGGACCC	-0.213
AGAGACAC	-0.155
ACGTAAAT	0.139
AGAAAACT	0.0998
GCGAACCC	-0.0359
CCATGTCC	-0.164
CTGGGTCC	-0.348
AATGTCGT	0.0366
CGAACGTA	-0.0397
GGCCGCAA	-0.162
ACACTAAA	0.236
AGCGCGTC	-0.115

Sequence	PBM E-score
GCAGCACC	-0.133
CGTTAGAA	-0.0968
ACTTCCTA	0.0359
TGATTTAA	0.168
GCAATTGC	-0.0502
AAAGTCTC	-0.247
ACAGCGAG	-0.0977
CCACGTGA	-0.093
ACCGAAAA	0.151
ATATAGGC	0.1
CAACAAGC	0.0475
AACCTTAA	0.19
GGGGCTAA	-0.101
GGGTGCTA	-0.0324
TACCTCCA	-0.049
AGTGCTAA	0.0862
ACACTACC	-0.079
GTCAGCCA	0.07
AGGGATTG	-0.0923
GCGCGGTA	0.151
ATTTGGAG	-0.181
TCTGAGCA	-0.0816
ACCCTATC	-0.016
GAGACGTA	0.185
CGTACTCC	-0.0619

Sequence	PBM E-score
CCTATTTC	0.047
ACATTAAA	0.152
CCTGTATA	0.00769
AGTCATAT	0.158
ACCGATCG	-0.0344
AAGCTTAG	0.306
CGACAGGA	0.0987
ATCGCACA	-0.0249
GCGCATGA	-0.054
CATGCACA	0.156
CAACCCTG	0.04
ACCTACGT	0.0549
GGGACTTA	-0.0902
CTACGAAG	-0.213
CCTCTCGA	-0.189
AGCATCCG	0.00491
ATGCTCTG	-0.126
CAATGTTC	-0.12
GGATTGTA	0.0819
ACGGCGCC	-0.238
AACGTGGG	-0.168
GATTTTTA	-0.0301
CCTTCGAG	-0.182
CCGGCGTA	-0.229
AACGTGCA	0.0487

Sequence	PBM E-score
GATAGCCC	-0.169
CATCTGGA	-0.0512
CTGCGAAA	-0.0552
CGATCACC	0.155
ACGACTCT	0.0094
CTGTAGTA	0.208
AGCTGACT	0.142
AGCACTAG	0.0301
GTTCATCA	0.0948
GCAGATAC	0.0167
CTGATATA	0.106
CCGGGTAA	0.0678
GACTACCA	-0.0759
CGAGCCCC	-0.189
GAGGCTGC	-0.139
CTGTATCA	-0.097
GAAGAATC	0.00251
CAGTTCGA	0.0222
CACTCTGA	-0.0735
AGTGGGAA	0.0405
ATTGTTGG	0.137
CGATACCA	0.0461
CCAATAGA	-0.01
ACATTCTA	-0.0488
AACCGTGC	-0.0844

Sequence	PBM E-score
CTGACTAA	0.36
CGGTAGCC	-0.0198
GGGTATAA	0.0581
AGACGACT	-0.122
GGATATCC	0.088
GAATATCC	0.0289
ATTGCTAA	0.203
CACATTAG	-0.0363
CGGAACTA	0.205
CCGCCTAG	0.0308
AATGGTCC	0.0864
AGCAGTAG	-0.142
GTAGCTAC	0.0441
AAGCGCAA	0.0939
AGACCAGA	-0.033
GATCCGCC	-0.0025
ACTGTGGA	-0.0659
AGGGAGGA	-0.321
ATTCCCTG	0.0327

No new results follow: entries from further up.
Sequence	PBM E-score
ACTGTGGA	-0.0659
AGGGAGGA	-0.321
